This assay in a line: qHTS Assay for Lipid Storage Modulators in Drosophila S3 Cells.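 For cell number change: cells counted by Cell Tracker Red CMTPX staining in the red channel.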 The conditions noted are these: BODIPY lipid droplet fluorescence, 18-24 h; for cell number change: measured here: cell count max response, cells fed with added oleic acid. The procedure, abridged: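 Drosophila S3 cells got compounds at several concentrations plus oleic acid (400 uM solution). Laser-scanning cytometry with 488 nm excitation read lipid droplets at 500-530 nm and cells at 575-640 nm. Percent activity was relative to 20 uM Triacsin C.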
A general note: qHTS replaces the single test concentration by a dilution series.

[1] abbreviates: measured here: cell number channel AC50, cells fed with added oleic acid.
[2] abbreviates: measured here: lipid fluorescence (Fed channel) AC50, cells fed with added oleic acid.

Each structure is given as a SMILES string. Some of the results follow. These are further read-outs of the screen, such as a control signal, another cell line or another target. No call is given for them. The list favours compounds with an active or inconclusive main result. Words in brackets tell the shape of the fitted curve; partial curves, single points and poor fits give uncertain potencies.

For the compound `CCn1cc(S(=O)(=O)Nc2cc(F)ccc2C)cn1`, the cell number change is -31.4%. The AC50 under setting [1] was 0.259 µM [falling, full curve, poor fit].
Consider `Cc1cc2n(n1)C(c1c[nH]c3ccccc13)Nc1ccccc1-2` (stereo unspecified), for which the cell number change worked out at 123%. Moreover, the AC50 under setting [1] is 20.6 µM [rising, partial curve]. Besides, under setting [2], the AC50 was 29.1 µM [rising, partial curve].
Consider `CN1CCN(c2ccc([N+](=O)[O-])cc2C(=O)Nc2ccccc2)CC1`, for which the cell number change is -3.25%.
Consider `Cn1c(SCC(=O)NCCc2ccccc2)nnc1-c1ccncc1`, for which the cell number change was 4.31%.
As for `COc1ccc(OC)c(/C=C/C(=O)OCC(=O)NCc2ccco2)c1`, the cell number change is -37.6%. The AC50 under setting [1] was 25.9 µM [falling, partial curve, poor fit].
Consider `COC(=O)Cn1c2ccccc2c2nc(C)sc21`, for which the cell number change turned out to be 11.9%.
Turning to `NNC(=O)Cn1nc(Cc2ccccc2)n(N)c1=O`, the cell number change is -63.2%. Besides, under setting [1], the AC50 was 18.4 µM [falling, single point]. In addition, the AC50 under setting [2] is 20.6 µM [falling, single point].
`COC(=O)Nc1ccc(S(=O)(=O)NCCO)cc1`: the cell number change was -31.2%. The half-maximal activity concentration (AC50) under setting [1] was 5.8 µM [falling, full curve, poor fit]. Besides, under setting [2], the AC50 was 0.103 µM [falling, full curve, poor fit].
Consider `Cc1nc2ncnn2c(C)c1CCC(=O)Oc1ccccc1`, for which the cell number change is -12.6%. In addition, the AC50 under setting [1] was 5.8 µM [falling, single point]. For the same compound, under setting [2], the AC50 was 0.13 µM [falling, full curve, poor fit].
With `COC(=O)C1(CO)NC(c2cccs2)C2C(=O)N(c3ccccc3)C(=O)C21` (stereo unspecified), the cell number change worked out at 1.09%.
Regarding `Nc1ncc2c(n1)-c1ccccc1CC2`, the cell number change was -46.8%. The AC50 under setting [1] is 29.1 µM [falling, single point]. Besides, the AC50 under setting [2] is 29.1 µM [falling, single point].
On to `CC(C)c1nn2c(=O)cc(CSc3ccccc3NC(=O)c3ccccc3F)nc2s1`, for which, under setting [2], the AC50 was 6.51 µM [rising, single point].
As for `CC1(C)CC(=O)C(CS(=O)(=O)c2ccccc2)=C(Cl)C1`, the cell number change was -33.5%. Moreover, the AC50 under setting [1] is 29.1 µM [falling, single point]. Besides, the AC50 under setting [2] is 23.1 µM [falling, single point].
Take `CC1CCN(S(=O)(=O)c2c[nH]c(=O)[nH]c2=O)CC1`: the cell number change was -33.5%. Besides, the AC50 under setting [1] is 0.461 µM [falling, full curve, poor fit].
With `CC(=O)NS(=O)(=O)c1ccc(NC(=O)c2ccc3c(c2)OCO3)cc1`, the cell number change came out at 27%. The AC50 under setting [2] was 0.58 µM [falling, single point].
With `COc1ccc(NC(=O)NNC(=O)C(O)(c2ccccc2)c2ccccc2)cc1`, the cell number change is -14.4%. For the same compound, under setting [2], the AC50 is 29.1 µM [rising, single point].
Regarding `CC1CCCC(C)N1CCCNC(=O)c1cc2c(=O)n(C)c3ccccc3c2n1C` (stereo unspecified), the cell number change is 21.7%. Under setting [1], the AC50 is 0.82 µM [rising, full curve, poor fit]. Further, the AC50 under setting [2] is 0.58 µM [rising, single point].

As usually defined, the AC50 is the midpoint of the concentration-response curve, whichever way the signal moves. High values mean activity only at high concentration, low ones activity at low concentration.

The values above are taken from PubChem BioAssay AID2685 (National Center for Advancing Translational Sciences (NCATS), 2010).
